# Measured values reported in the supplement of paper PMC4604168 (melanoma cell lines).
# The list shows a part of the results. Repeats are few or missing, and single values can be far off.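 Cells were imaged in 1,536-well plates, and nuclei stained with an antibody against cleaved PARP were counted against all DNA-stained nuclei to give the apoptosis fraction. Screening doses were chosen to leave most cells alive, and resting and induced cleaved-PARP levels differ strongly between cell lines.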
# How the values were obtained:
# Assay in all cases: cleaved PARP positive nuclei fraction relative to DMSO control; melanoma cells; higher = more apoptosis
# Details in all cases: library dose: low library concentration; 72 h
# COLO792 = tested on: COLO792
# COLO800 = tested on: COLO800
# COLO829 = tested on: COLO829
# G361 = tested on: G361
# IPC-298 = tested on: IPC-298
# IST-MEL1 = tested on: IST-MEL1
# LB2518-MEL = tested on: LB2518-MEL
# LOXIMVI = tested on: LOXIMVI
Structure (SMILES),cleaved PARP positive nuclei fraction (COLO792),cleaved PARP positive nuclei fraction (COLO800),cleaved PARP positive nuclei fraction (COLO829),cleaved PARP positive nuclei fraction (G361),cleaved PARP positive nuclei fraction (IPC-298),cleaved PARP positive nuclei fraction (IST-MEL1),cleaved PARP positive nuclei fraction (LB2518-MEL),cleaved PARP positive nuclei fraction (LOXIMVI)
"CCN(CC)CCNC(=O)c1c(C)[nH]c(/C=C2\C(=O)Nc3ccc(F)cc32)c1C [sunitinib] + c1cc(-c2cnn3cc(-c4ccc(OCCN5CCCCC5)cc4)cnc23)ccn1 [Dorsomorphin] (first compound 0.4 µM, partner dose 0.4 µM)",77.6%,117%,95.2%,143%,126%,148%,84.7%,71.7%
"COc1ccc(C2=N[C@@H](c3ccc(Cl)cc3)[C@@H](c3ccc(Cl)cc3)N2C(=O)N2CCNC(=O)C2)c(OC(C)C)c1 [Nutlin-3] + O=c1cc(-c2cccc3c2Sc2ccccc2S3)oc(N2CCOCC2)c1 [KU55933] (first compound 0.1 µM, partner dose 1 µM)",120%,70.1%,145%,118%,31.4%,85.9%,62%,70%
"CN(c1ncccc1CNc1nc(Nc2ccc3c(c2)CC(=O)N3)ncc1C(F)(F)F)S(C)(=O)=O + COc1cc2ncnc(Nc3ccc(Oc4ccccc4)cc3)c2cc1OC [SrcI1] (first compound 0.08 µM, partner dose 2 µM)",105%,13.9%,296%,89.2%,106%,46.7%,66%,22.8%
"CCCCCCCCc1ccc(CCC(N)(CO)CO)cc1 [fingolimod] + COc1cc2ncnc(Nc3ccc(Oc4ccccc4)cc3)c2cc1OC [SrcI1] (first compound 2 µM, partner dose 2 µM)",122%,100%,132%,140%,93.9%,82.6%,93.7%,29.7%
"CS(=O)(=O)c1ccc(C(=O)Nc2ccc(Cl)c(-c3ccccn3)c2)c(Cl)c1 [vismodegib] + CC(C)CCN1c2nc(Nc3cc(F)c(O)c(F)c3)ncc2N(C)C(=O)C1C [BID1870] (first compound 1 µM, partner dose 0.2 µM)",54.9%,32.5%,100%,201%,25.3%,66%,146%,132%
"NC1(c2ccc(-c3nc4ccn5c(=O)[nH]nc5c4cc3-c3ccccc3)cc2)CCC1 + COc1ccc(COc2ccc(Cc3cnc(N)nc3N)cc2OC)cc1 [GW2580] (first compound 0.4 µM, partner dose 1 µM)",71.3%,70.1%,76.8%,182%,97.1%,210%,85.5%,80.4%
"C[C@]1(O)C[C@@H](c2nc(-c3ccc4ccc(-c5ccccc5)nc4c3)c3c(N)nccn32)C1 + Oc1cc(-c2nc(-c3ccccc3)[nH]c2-c2ccncc2)ccc1Cl [L779450] (first compound 0.4 µM, partner dose 0.2 µM)",45.6%,75.4%,32%,99.9%,60%,55.4%,93.6%,59.9%
"COc1ccc(C2=N[C@@H](c3ccc(Cl)cc3)[C@@H](c3ccc(Cl)cc3)N2C(=O)N2CCNC(=O)C2)c(OC(C)C)c1 [Nutlin-3] + COc1cc2ncnc(Nc3ccc(Oc4ccccc4)cc3)c2cc1OC [SrcI1] (first compound 0.1 µM, partner dose 2 µM)",139%,94%,30.8%,66.5%,65.6%,59.6%,132%,83.7%
"CS(=O)(=O)c1ccc(C(=O)Nc2ccc(Cl)c(-c3ccccn3)c2)c(Cl)c1 [vismodegib] + Oc1cc(-c2nc(-c3ccccc3)[nH]c2-c2ccncc2)ccc1Cl [L779450] (first compound 1 µM, partner dose 0.2 µM)",85.3%,90.3%,42.3%,94.6%,66.7%,232%,41.1%,97.7%
"CCN(CC)CCNC(=O)c1c(C)[nH]c(/C=C2\C(=O)Nc3ccc(F)cc32)c1C [sunitinib] + Cc1cc([N+](=O)[O-])ccc1NS(=O)(=O)c1cc(Cl)ccc1Cl [FH535] (first compound 0.4 µM, partner dose 1 µM)",168%,81%,106%,241%,152%,715%,61.4%,168%
"CC1(C)CCC(c2ccc(Cl)cc2)=C(CN2CCN(c3ccc(C(=O)NS(=O)(=O)c4ccc(N[C@H](CCN5CCOCC5)CSc5ccccc5)c(S(=O)(=O)C(F)(F)F)c4)cc3)CC2)C1 + Oc1nc(-c2ccc(C(F)(F)F)cc2)nc2c1CSCC2 [XAV939] (first compound 0.4 µM, partner dose 2 µM)",591%,103%,87.5%,252%,145%,119%,92.5%,89.2%
"NC1(c2ccc(-c3nc4ccn5c(=O)[nH]nc5c4cc3-c3ccccc3)cc2)CCC1 + COc1ccc2c(c1)CCC1C2CCC2(C)C(NCCCCCCN3C(=O)C=CC3=O)CCC12 [U73122] (first compound 0.4 µM, partner dose 0.4 µM)",97.3%,53.4%,62%,148%,154%,130%,85.7%,191%
"COc1ccc(C2=N[C@@H](c3ccc(Cl)cc3)[C@@H](c3ccc(Cl)cc3)N2C(=O)N2CCNC(=O)C2)c(OC(C)C)c1 [Nutlin-3] + O=C(Nc1ccccc1)c1cc([N+](=O)[O-])ccc1Cl [GW9662] (first compound 0.1 µM, partner dose 2 µM)",73.8%,97.4%,98.7%,312%,89.9%,135%,152%,36.1%
"CC(=O)O[C@@]12CO[C@@H]1C[C@H](O)[C@@]1(C)C(=O)[C@H](O)C3=C(C)[C@@H](OC(=O)[C@H](O)[C@@H](NC(=O)OC(C)(C)C)c4ccccc4)C[C@@](O)([C@@H](OC(=O)c4ccccc4)[C@H]21)C3(C)C [Docetaxel] + O=C(Nc1ccccc1)c1cc([N+](=O)[O-])ccc1Cl [GW9662] (first compound 0.0001 µM, partner dose 2 µM)",368%,535%,486%,530%,198%,109%,119%,51.7%
"C[C@@H](N)c1ccc(C(=O)Nc2ccnc3[nH]ccc23)cc1 + COc1cc2ncnc(Nc3ccc(Oc4ccccc4)cc3)c2cc1OC [SrcI1] (first compound 0.4 µM, partner dose 2 µM)",111%,54.4%,112%,108%,72.4%,88.1%,45.9%,170%
"CCN(CC)CCNC(=O)c1c(C)[nH]c(/C=C2\C(=O)Nc3ccc(F)cc32)c1C [sunitinib] + COc1ccc(COc2ccc(Cc3cnc(N)nc3N)cc2OC)cc1 [GW2580] (first compound 0.4 µM, partner dose 1 µM)",129%,68%,82.7%,67.6%,133%,115%,68.3%,135%
"Cn1cnc2c(F)c(Nc3ccc(Br)cc3Cl)c(C(=O)NOCCO)cc21 [selumetinib] + Oc1cc(-c2nc(-c3ccccc3)[nH]c2-c2ccncc2)ccc1Cl [L779450] (first compound 0.015 µM, partner dose 0.2 µM)",90.2%,183%,158%,288%,141%,173%,86.3%,91%
"CCN(CC)CCNC(=O)c1c(C)[nH]c(/C=C2\C(=O)Nc3ccc(F)cc32)c1C [sunitinib] + COc1ccc(-c2ccc3c(N4CCOCC4)nc(N4C[C@@H](C)O[C@@H](C)C4)nc3n2)cc1CO [KU0063794] (first compound 0.4 µM, partner dose 0.02 µM)",116%,51.8%,57%,107%,67.6%,91.9%,67.8%,36.4%
"C[C@@H](N)c1ccc(C(=O)Nc2ccnc3[nH]ccc23)cc1 + Oc1cc(-c2nc(-c3ccccc3)[nH]c2-c2ccncc2)ccc1Cl [L779450] (first compound 0.4 µM, partner dose 0.2 µM)",179%,89.2%,93.4%,244%,50.5%,198%,65.3%,255%
"CCN(CC)CCNC(=O)c1c(C)[nH]c(/C=C2\C(=O)Nc3ccc(F)cc32)c1C [sunitinib] + Oc1nc(-c2ccc(C(F)(F)F)cc2)nc2c1CSCC2 [XAV939] (first compound 0.4 µM, partner dose 2 µM)",85.2%,152%,67.4%,124%,100%,113%,37.4%,166%
"NC(=O)c1ccc(N(C(N)=O)c2c(F)cccc2F)nc1-c1ccc(F)cc1F + Oc1cc(-c2nc(-c3ccccc3)[nH]c2-c2ccncc2)ccc1Cl [L779450] (first compound 0.4 µM, partner dose 0.2 µM)",107%,140%,40.8%,146%,73.1%,99.8%,141%,114%
"NC1(c2ccc(-c3nc4ccn5c(=O)[nH]nc5c4cc3-c3ccccc3)cc2)CCC1 + Cc1cc([N+](=O)[O-])ccc1NS(=O)(=O)c1cc(Cl)ccc1Cl [FH535] (first compound 0.4 µM, partner dose 1 µM)",184%,157%,133%,84.2%,169%,83.5%,86.8%,232%
"COc1ccc(C2=N[C@@H](c3ccc(Cl)cc3)[C@@H](c3ccc(Cl)cc3)N2C(=O)N2CCNC(=O)C2)c(OC(C)C)c1 [Nutlin-3] + Oc1cc(-c2nc(-c3ccccc3)[nH]c2-c2ccncc2)ccc1Cl [L779450] (first compound 0.1 µM, partner dose 0.2 µM)",88.6%,82.1%,83.4%,139%,121%,215%,180%,62.8%

# Exported bar-delimited: part of the list above.
Structure (SMILES) | cleaved PARP positive nuclei fraction (COLO792) | cleaved PARP positive nuclei fraction (COLO800) | cleaved PARP positive nuclei fraction (COLO829) | cleaved PARP positive nuclei fraction (G361) | cleaved PARP positive nuclei fraction (IPC-298) | cleaved PARP positive nuclei fraction (IST-MEL1) | cleaved PARP positive nuclei fraction (LB2518-MEL) | cleaved PARP positive nuclei fraction (LOXIMVI)
CCN(CC)CCNC(=O)c1c(C)[nH]c(/C=C2\C(=O)Nc3ccc(F)cc32)c1C [sunitinib] + c1cc(-c2cnn3cc(-c4ccc(OCCN5CCCCC5)cc4)cnc23)ccn1 [Dorsomorphin] (first compound 0.4 µM, partner dose 0.4 µM) | 77.6% | 117% | 95.2% | 143% | 126% | 148% | 84.7% | 71.7%
CS(=O)(=O)c1ccc(C(=O)Nc2ccc(Cl)c(-c3ccccn3)c2)c(Cl)c1 [vismodegib] + Oc1cc(-c2nc(-c3ccccc3)[nH]c2-c2ccncc2)ccc1Cl [L779450] (first compound 1 µM, partner dose 0.2 µM) | 85.3% | 90.3% | 42.3% | 94.6% | 66.7% | 232% | 41.1% | 97.7%
